# Laboratory results as given in article PMC8421415.
# Amino acid sequences for entries named in this document (tags omitted).
# UniProt O88597: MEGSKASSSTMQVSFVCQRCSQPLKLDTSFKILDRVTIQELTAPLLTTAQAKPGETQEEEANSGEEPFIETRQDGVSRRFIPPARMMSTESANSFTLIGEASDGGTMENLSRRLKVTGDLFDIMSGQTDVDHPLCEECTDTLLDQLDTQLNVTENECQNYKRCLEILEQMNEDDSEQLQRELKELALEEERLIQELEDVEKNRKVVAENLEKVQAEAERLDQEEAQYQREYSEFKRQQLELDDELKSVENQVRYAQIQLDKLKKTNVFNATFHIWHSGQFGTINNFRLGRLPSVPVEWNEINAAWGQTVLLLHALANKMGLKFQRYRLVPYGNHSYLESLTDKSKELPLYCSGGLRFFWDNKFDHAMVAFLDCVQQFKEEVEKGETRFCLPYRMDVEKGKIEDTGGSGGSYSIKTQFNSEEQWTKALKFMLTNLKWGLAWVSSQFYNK
# UniProt Q6PF93: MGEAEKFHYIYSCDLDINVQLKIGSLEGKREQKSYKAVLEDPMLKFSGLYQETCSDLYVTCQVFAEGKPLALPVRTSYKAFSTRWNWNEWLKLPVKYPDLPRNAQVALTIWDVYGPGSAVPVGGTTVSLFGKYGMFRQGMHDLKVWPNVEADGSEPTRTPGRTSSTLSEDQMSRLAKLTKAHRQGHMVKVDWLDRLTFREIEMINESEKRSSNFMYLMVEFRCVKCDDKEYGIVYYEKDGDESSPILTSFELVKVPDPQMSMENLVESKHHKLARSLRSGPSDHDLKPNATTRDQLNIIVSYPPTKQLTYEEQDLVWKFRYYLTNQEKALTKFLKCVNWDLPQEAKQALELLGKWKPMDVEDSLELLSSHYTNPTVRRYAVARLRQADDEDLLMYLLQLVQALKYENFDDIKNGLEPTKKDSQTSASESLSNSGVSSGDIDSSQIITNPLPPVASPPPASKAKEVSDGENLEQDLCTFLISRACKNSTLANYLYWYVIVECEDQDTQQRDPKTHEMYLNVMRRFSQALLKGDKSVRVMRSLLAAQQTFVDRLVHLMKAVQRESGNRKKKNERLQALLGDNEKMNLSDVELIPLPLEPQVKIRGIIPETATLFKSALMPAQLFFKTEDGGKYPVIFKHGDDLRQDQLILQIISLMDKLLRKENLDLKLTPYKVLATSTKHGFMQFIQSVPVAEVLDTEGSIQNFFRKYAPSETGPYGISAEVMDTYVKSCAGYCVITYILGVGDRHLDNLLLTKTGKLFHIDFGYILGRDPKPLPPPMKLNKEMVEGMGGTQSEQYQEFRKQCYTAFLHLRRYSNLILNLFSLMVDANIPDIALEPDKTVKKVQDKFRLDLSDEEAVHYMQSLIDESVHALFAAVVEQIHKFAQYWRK
# No constants are given. Whether binding was seen depends on the method and setting. In cells and extracts the contact can be indirect. Some binding calls cover weakened binding; strength is not graded here.
# Molecular target: endogenous Beclin 1 (MEFs) (mouse (endogenous in MEFs)) (UniProt O88597)
# Test: co-IP; immunoprecipitation of endogenous Beclin 1 from MEFs or HEK293; immunoblots of endogenous Vps34, ATG14L or UVRAG; cells with or without 0.2 mg/ml T. orientalis extract for 4 h; mouse IgG as negative IP control
substance,measurement,value
endogenous Vps34 (MEFs) (from UniProt Q6PF93 1-887) (enzyme),binding,binds
